# In paper PMC7005530, “A selective androgen receptor modulator SARM‐2f activates androgen receptor, increases lean body mass, and suppresses blood lipid levels in cynomolgus monkeys” (Pharmacology Research & Perspectives, 2020):
# Assay: Effects on body weight and lean body mass, 4-week administration
# Format: in vivo, cynomolgus monkey
# Settings: 10 mg/kg daily p.o., Day 13, male monkeys n = 3
structure (smiles),measurement,value
"CC[C@H]1[C@@H](O)CC(=O)N1c1ccc(C#N)c(C(F)(F)F)c1 [SARM‐2f, 4′‐[(2S,3S)‐2‐Ethyl‐3‐hydroxy‐5‐oxopyrrolidin‐1‐yl]‐2′‐(trifluoromethyl) benzonitrile]",BW increase from pre‐dosing level,8.7% and not significantly increased

# For part of its entries the source gives two or more results. They are shown here; other results are not. An entry can have further records. Values that stand side by side differ, and nothing given here explains why; dose, time, organism, isomer or construct need not be as stated for each record.
